# Test results reported in PubChem BioAssay AID662 (National Center for Advancing Translational Sciences (NCATS), 2007).
# The list shows a part of the results. The main result of the screen is listed elsewhere. These columns were measured beside it and carry no call. Most of these compounds were active or inconclusive in the main read-out, so they are no random draw. The note in brackets gives the kind of curve behind each potency; many fits are weak.
# Assay: Cell signaling CRE-BLA (Fsk stim)
# Conditions: CHO CRE-bla reporter (cAMP response element driving beta-lactamase), forskolin EC10, beta-lactamase ratio; measured here: 460 nm blue channel
# Method in brief: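 Using CellSensor CRE-bla CHO cells in Opti-MEM with 0.5% dialyzed FBS, compounds were titrated with EC10 NKH 477 for 3 h at 37 °C. CCF4 ratio (460/530 nm) gave %Activity; AC50 derived.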
row,Compound,AC50
1,O=C(Nc1cc(C(=O)N2CCOCC2)cc(C(=O)N2CCOCC2)c1)c1cc(F)c(F)cc1Cl,"0.00501 µM [falling, full curve, poor fit]"
2,O=C(Cc1cccs1)Nc1ccccn1,"20 µM [rising, single point]"
3,O=C(Cn1cnc2c(nnn2-c2ccccc2)c1=O)NCCc1ccccc1,"12.6 µM [rising, partial curve]"
4,CN1CCN(c2ncc3nc(CCc4ccccc4)c(=O)n(CCc4ccccc4)c3n2)CC1,"15.8 µM [rising, partial curve]"
5,O=C(CSc1nnc(-c2ccco2)n1-c1ccccc1)N1CCOCC1,"0.158 µM [rising, full curve]"
6,c1cncc(CNc2nc(-c3cccnc3)nc3ccccc23)c1,"3.98 µM [rising, full curve]"
7,N#Cc1c(NC(=O)c2ccc(Br)o2)n(-c2ccccc2)c2nc3ccccc3nc12,"12.6 µM [rising, partial curve]"
8,CC(Oc1ccccc1)C(=O)OCC(=O)NC(=O)NCc1ccco1 (centres undefined),"7.94 µM [falling, partial curve]"
9,COCCNc1nc(-c2ccccc2Cl)nc2ccccc12,"6.31 µM [rising, partial curve]"
10,Cc1ccsc1-c1nc(CSCC(=O)N2CCN(c3ccccc3)CC2)c(C)o1,"25.1 µM [falling, single point]"
11,O=C(CCN1CCCCC1)c1ccc2c(c1)OCCO2,"6.31 µM [falling, partial curve]"
12,c1ccc(-n2c(SCc3nc(-c4cccs4)no3)nnc2-c2ccco2)cc1,"10 µM [rising, partial curve]"
13,COc1ccc(C(c2sc3nc(C)nn3c2O)N2CCC(C(N)=O)CC2)cc1OC (centres undefined),"10 µM [rising, partial curve]"
14,CCC(=O)Nc1ccc(NC(=O)c2c(C)nc3ccccn23)cc1,"20 µM [rising, single point]"
15,CCN(CC)S(=O)(=O)c1ccc(OCC(=O)NCc2ccccc2)cc1,"5.01 µM [falling, single point]"
16,COc1cccc2cc(NC(=O)C3CCCCC3)c(=O)oc12,"0.794 µM [rising, full curve, poor fit]"
17,C=Cn1nc(C)c2ccccc2c1=O,"12.6 µM [rising, single point]"
18,CC(C)=C[C@H]1[C@@H](C(=O)Oc2ccccc2C(C)C)C1(C)C,"5.01 µM [rising, single point]"
19,C=CCSc1nc(N)c(C#N)c(-c2ccc(C)cc2)c1C#N,"3.16 µM [rising, partial curve]"
20,CC(C)COC(=O)c1cc(=O)[nH]c2ccccc12,"15.8 µM [rising, partial curve]"
21,COc1ccc(S(=O)(=O)NC(CC(=O)NCC2CCCO2)c2ccco2)cc1 (centres undefined),"0.00794 µM [falling, full curve, poor fit]"
22,COc1ccc(NC(=O)Cn2nc3n(c2=S)CCC3)cc1,"0.0398 µM [rising, full curve, poor fit]"
23,CC(C)Sc1nc2c(cnn2-c2ccc(F)cc2)c(=O)[nH]1,"2.51 µM [rising, full curve]"

row,Compound,AC50
1,Cn1c(-c2cccc(Br)c2)cnc1NCc1cccnc1,"5.01 µM [rising, single point]"
2,COC(=O)Cc1[nH]nc2c1C(C1C=CCCC1)C(C#N)=C(N)O2 (centres undefined),"0.1 µM [falling, full curve]"
3,CCOC(=O)c1ccc(Nc2ncnc3c2cnn3C)cc1,"10 µM [rising, single point]"
4,N[C@H](C(=O)O)c1nn[nH]n1,"31.6 µM [falling, single point]"
5,CC(=O)c1ccccc1Oc1nc(CN2CCOCC2)nc2scc(-c3cccs3)c12,"10 µM [rising, single point]"
6,COCCCn1cnc2c(c1=O)c1nc3ccccc3nc1n2-c1ccccc1,"1 µM [rising, full curve]"
7,c1coc(CNc2c3c(nc4ncnn24)CCC3)c1,"5.01 µM [falling, single point]"
8,COc1cccc(-c2cc(C(=O)Nc3ccccc3SC)no2)c1,"3.16 µM [falling, partial curve, poor fit]"
9,CC(C)Oc1ccccc1-c1nc(SCC(=O)O)n[nH]1,"10 µM [falling, partial curve, poor fit]"
10,CCn1c2ccccc2c2nnc(SCC(=O)NCc3cccs3)nc21,"10 µM [rising, partial curve]"
11,CCOc1ccc(NC(=O)c2nnn(CC(=O)Nc3ccccc3OCC)c2N)cc1,"2 µM [rising, single point]"
12,Cc1cc(=O)[nH]c(SCc2nc3ccccc3n2Cc2ccccc2)n1,"15.8 µM [rising, single point]"
13,COc1ccc(C(=O)N2CCCC(c3nc(-c4cccs4)no3)C2)cc1OC (centres undefined),"20 µM [rising, single point]"
14,Clc1ccc2c(c1)c1ccccc1n2CN1CCOCC1,"10 µM [rising, single point]"
15,Cc1nc(SCC(=O)N2CCOCC2)c2ccsc2n1,"5.01 µM [falling, partial curve]"
16,O=C(CSc1nnc(-c2cccnc2)n1Cc1ccco1)c1ccc(Cl)c(Cl)c1,"12.6 µM [rising, single point]"
17,CC(C)C[C@@H](CC(=O)N[C@@H](CCC(=O)O)CC(=O)O)NC(=O)[C@@H]1CNCC[C@H]1NC(=O)C[C@@H](NC(=O)C[C@H](CO)NC(=O)[C@@H]1CNCC[C@H]1N)C(C)C,"10 µM [falling, full curve, poor fit]"
18,Cc1cccc(N2CCN(S(=O)(=O)c3ccc4c(c3)CCN4C(=O)CCC(=O)O)CC2)c1C,"0.316 µM [falling, full curve]"
19,N[C@@H](CO)C(=O)O,"31.6 µM [falling, single point]"
20,O=C(NC1CC1)c1ccc2c(c1)ncn2C1CCCC1,"25.1 µM [rising, single point]"
21,O=C(Nc1ccccc1C(=O)OCn1nnc2ccccc2c1=O)c1ccco1,"25.1 µM [rising, single point]"
22,Cc1ccc(S(=O)(=O)n2nc(-c3ccco3)nc2SCc2ccccc2)cc1,"1.26 µM [falling, full curve, poor fit]"
23,CCOC(=O)Nc1ccc2c(c1)N(C(=O)OC)c1ccccc1CC2,"25.1 µM [rising, single point]"

# Of the compounds above, these have bromine:
row,Compound,AC50
7,N#Cc1c(NC(=O)c2ccc(Br)o2)n(-c2ccccc2)c2nc3ccccc3nc12,"12.6 µM [rising, partial curve]"
1,Cn1c(-c2cccc(Br)c2)cnc1NCc1cccnc1,"5.01 µM [rising, single point]"

# Carrying on.

row,Compound,AC50
1,Cc1nc(N)c(C#N)c(-c2ccccc2)c1C,"3.16 µM [rising, partial curve]"
2,CN1C(=O)CC[C@@H]1c1cccnc1,"5.01 µM [rising, single point]"
3,Cc1ccc(S(=O)(=O)N(C)Cc2ccc(-c3nnc4n3CCC4)cc2)cc1,"5.01 µM [falling, single point]"
4,COc1cc(C(O)P(=O)(OC2CCCCC2)c2ccc(N(C)C)cc2)cc(OC)c1OC (centres undefined),"3.16 µM [falling, single point]"
5,C1COC(NC(C2CC2)C2CC2)=N1,"25.1 µM [falling, single point]"
6,O=c1c(-c2cc(F)cc(F)c2)nc2cnc(N3CCNCC3)nc2n1Cc1cccs1,"2 µM [rising, full curve]"
7,Cc1cc(C)n(-c2nc3c(c(=O)[nH]c(=O)n3C)n2CCc2ccccc2)n1,"12.6 µM [rising, single point]"
8,CCCC(=O)Nc1nn(C)c2nc3cc(C)ccc3cc12,"3.98 µM [rising, partial curve]"
9,CC1CCCCC1NC(=O)c1ccc(N2CCCC2=O)cc1 (centres undefined),"1.26 µM [rising, single point]"
10,N#CC1=C(N)Oc2cc3c(cc2C1c1ccc(Cl)cc1)OCO3 (centres undefined),"15.8 µM [rising, single point]"
11,CCn1nc(C)c(/C=C2\CCCC3=C2OC(N)=C(C#N)C3c2c(C)nn(CC)c2C)c1C (centres undefined),"25.1 µM [rising, single point]"
12,COCCn1c(=O)c(-c2ccc(Cl)cc2)nc2cncnc21,"12.6 µM [rising, partial curve]"
13,Cc1c(-c2nn(C)c(=O)c3ccccc23)oc2ccc(F)cc2c1=O,"0.0501 µM [rising, full curve, poor fit]"
14,Cc1cc(NC(=O)CSc2nc(-c3ccccc3)cs2)no1,"12.6 µM [falling, partial curve]"
15,c1ccc2nc(N3CCCC3)c(N3CCCC3)nc2c1,"12.6 µM [rising, single point]"
16,Cc1[nH]nc2c1C(c1ccccc1)C1=C(CC(C)(C)CC1=O)N2 (centres undefined),"0.00316 µM [falling, full curve, poor fit]"
17,Oc1ccc2cc(SSc3ccc4cc(O)ccc4c3)ccc2c1,"7.94 µM [falling, partial curve]"
18,COc1ccc(OCCCN2CCCC(C)C2)cc1 (centres undefined),"15.8 µM [rising, single point]"
19,Cc1ccc2[nH]c3c(c2c1)CN(C(=O)CN1CCN(c2cccc(C)c2C)CC1)CC3,"3.16 µM [falling, single point]"
20,COC(=O)c1cc(Br)c(=O)n(CCN(C(C)C)C(C)C)c1,"15.8 µM [falling, partial curve]"
21,CN(C)c1ccc(-c2cncnc2Nc2ccc(F)cc2)cc1,"15.8 µM [falling, partial curve]"
22,O=C(Nc1nc(-c2ccc(S(=O)(=O)N3CCCC3)cc2)cs1)c1ccco1,"12.6 µM [rising, partial curve]"
23,CN(C)c1oc(-c2ccc(OCc3ccccc3)cc2)nc1C#N,"3.98 µM [rising, partial curve]"

# Looked up by structure from the entries so far:
row,Compound,AC50
15,c1ccc2nc(N3CCCC3)c(N3CCCC3)nc2c1,"12.6 µM [rising, single point]"
10,N#CC1=C(N)Oc2cc3c(cc2C1c1ccc(Cl)cc1)OCO3 (centres undefined),"15.8 µM [rising, single point]"
